Assay results reported in article PMC4712133.
These are yes or no findings as the source states them, for the method shown. Some binding calls cover weakened binding; strength is not graded here.

The chains behind the UniProt entries cited, without tags or fusion partners. Residues count along the entry.
UniProt Q969D9, residues 29-159: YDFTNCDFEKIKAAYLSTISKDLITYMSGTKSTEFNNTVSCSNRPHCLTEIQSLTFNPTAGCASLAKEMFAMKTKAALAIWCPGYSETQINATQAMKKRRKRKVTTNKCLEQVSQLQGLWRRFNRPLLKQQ
UniProt P03973, residues 26-132: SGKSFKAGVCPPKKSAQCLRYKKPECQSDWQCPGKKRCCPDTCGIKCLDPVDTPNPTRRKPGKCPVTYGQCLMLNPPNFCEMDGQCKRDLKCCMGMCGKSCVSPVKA
UniProt P10451, residues 17-314: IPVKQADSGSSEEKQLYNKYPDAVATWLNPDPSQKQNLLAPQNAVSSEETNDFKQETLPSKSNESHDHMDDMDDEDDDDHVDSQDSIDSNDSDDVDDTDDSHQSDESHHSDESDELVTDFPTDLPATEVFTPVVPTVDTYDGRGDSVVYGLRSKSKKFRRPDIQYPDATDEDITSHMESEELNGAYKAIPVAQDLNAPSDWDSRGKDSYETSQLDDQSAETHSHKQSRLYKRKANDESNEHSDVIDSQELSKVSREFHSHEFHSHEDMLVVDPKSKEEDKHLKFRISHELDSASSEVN

Experiments:
midkine (human) = biological target: T1, midkine (human) (UniProt P21741); test: ELISA; 96-well plate coated with 0.25, 1 and 2 ug of AMP; 2 ug OPN added, 2 h at 37°C; bound OPN detected with rabbit anti-OPN and HRP-conjugated secondary antibody, read at 405 nm; both purified
T1 sequence: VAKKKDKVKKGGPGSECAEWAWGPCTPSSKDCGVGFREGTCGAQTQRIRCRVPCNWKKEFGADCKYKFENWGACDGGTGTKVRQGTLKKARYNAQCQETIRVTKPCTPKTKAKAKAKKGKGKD

[1] = biological target: thymic stromal lymphopoietin (TSLP) (human) (UniProt Q969D9); test: as above
[2] = biological target: secretory leukocyte peptidase inhibitor (SLPI), recombinant human (human) (UniProt P03973); test: as above
[3] = biological target: T2, human beta defensin-3 (hBD-3) (human) (UniProt P81534); test: as above
T2 sequence: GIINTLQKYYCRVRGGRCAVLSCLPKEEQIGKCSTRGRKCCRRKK

[4] = biological target: osteopontin (OPN), recombinant human (human) (UniProt P10451); test: SPR; BIAcore X-100; human OPN immobilised on a CM5 chip by amine coupling; AMPs injected at 31.25-500 nM in 10 mM HEPES pH 7.5, 150 mM NaCl, 0.005% surfactant P20, 3.4 mM EDTA, 30 ul/min; 1:1 binding model with drifting baseline; both purified

Row | Substance | binding (midkine (human)) | binding [1] | binding [2] | binding [3] | binding [4]
1 | osteopontin (OPN), recombinant human (from UniProt P10451 17-314) | binds | binds | binds | binds | –
2 | secretory leukocyte peptidase inhibitor (SLPI), recombinant human (from UniProt P03973 26-132) | – | – | – | – | binds
3 | thymic stromal lymphopoietin (TSLP) (from UniProt Q969D9 29-159) | – | – | – | – | binds
